Source: US20120171240A1 (UNIVERSITY OF LOUISVILLE RESEARCH FOUNDATION, published 2012)
Results are given in words; binding and its absence hold for the method and conditions named. Some results given as binding are weak or reduced against the parent protein; the word gives no strength.

Protein sequences, listed by entry. Tags and fused reporters are not part of them. Lines headed by an entry give the natural chain unless they say otherwise; changes in a name come on top. Residues count along the entry.
UniProt P27512, residues 20-289: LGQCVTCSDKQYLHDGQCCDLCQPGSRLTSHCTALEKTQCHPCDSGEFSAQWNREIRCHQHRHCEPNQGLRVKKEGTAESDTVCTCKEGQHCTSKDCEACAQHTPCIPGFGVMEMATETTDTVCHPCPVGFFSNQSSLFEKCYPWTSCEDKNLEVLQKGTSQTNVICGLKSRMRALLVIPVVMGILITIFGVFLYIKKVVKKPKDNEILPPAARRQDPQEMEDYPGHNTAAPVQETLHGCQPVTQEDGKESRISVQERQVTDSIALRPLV
UniProt P25942, residues 21-277: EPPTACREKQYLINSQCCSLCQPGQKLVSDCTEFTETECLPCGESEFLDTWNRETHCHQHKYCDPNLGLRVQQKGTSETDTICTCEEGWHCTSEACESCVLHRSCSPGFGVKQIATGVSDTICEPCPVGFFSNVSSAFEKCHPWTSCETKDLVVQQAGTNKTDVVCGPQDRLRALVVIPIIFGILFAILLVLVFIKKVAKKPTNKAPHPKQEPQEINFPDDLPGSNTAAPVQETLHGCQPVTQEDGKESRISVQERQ
UniProt P22629: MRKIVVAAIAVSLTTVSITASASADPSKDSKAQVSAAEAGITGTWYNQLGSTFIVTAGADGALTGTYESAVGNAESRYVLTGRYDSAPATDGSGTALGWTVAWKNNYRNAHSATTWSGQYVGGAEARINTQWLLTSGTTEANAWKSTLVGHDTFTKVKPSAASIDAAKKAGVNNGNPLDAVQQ

What was measured:
[1] = molecular target: murine CD40 receptor (mouse) (UniProt P27512); assay: flow cytometry on mouse A20 cells, FITC anti-streptavidin detection
[2] = molecular target: T1, human CD40 receptor (human, UniProt P25942 21-277); assay: flow cytometry on human THP-1 cells, FITC anti-streptavidin detection
[3] = molecular target: murine CD40 receptor (mouse) (UniProt P27512); assay: flow cytometry on mouse A20 cells, 200 ng/ml, FITC anti-streptavidin detection
[4] = molecular target: T1, human CD40 receptor; assay: flow cytometry on human THP-1 cells, 200 ng/ml, FITC anti-streptavidin detection

binding [1]: binds | binding [2]: binds | binding [3]: binds | binding [4]: binds
Substance: CSA-mCD40L (fusion of core streptavidin and murine CD40L) (from UniProt P22629 37-163; P27548 47-260) (ligand)
